EP0338092A1, “ANTI-HIV AGENT” (Chugai Seiyaku Kabushiki Kaisha, priority 1987, dated 1989)
Some results were stated once for a whole list of compounds, not compound by compound.

Test system: HIV
Experiment: Inhibition of cytopathy of HIV infected cells (viable and dead cell count after 6 days)
Format: cell-based
Details: dose of 7.8 p'g/ml (so in the source); HIV infected Molt-4 clone 8 cells; Figs. 1 - 6

Substance | cytopathy inhibiting effects
sodium salt of maltopentaose sulfate ester [compound 6] | very strong cytopathy inhibiting effects
sodium salt of maltohexaose sulfate ester [compound 5] | very strong cytopathy inhibiting effects
sodium salt of maltoheptaose sulfate ester [compound 7] | very strong cytopathy inhibiting effects
